# Data as given in the supplement of paper PMC10849652.
# Protein sequences, listed by entry. Tags and fused reporters are not part of them. Lines headed by an entry give the natural chain unless they say otherwise; changes in a name come on top.
# UniProt P06727: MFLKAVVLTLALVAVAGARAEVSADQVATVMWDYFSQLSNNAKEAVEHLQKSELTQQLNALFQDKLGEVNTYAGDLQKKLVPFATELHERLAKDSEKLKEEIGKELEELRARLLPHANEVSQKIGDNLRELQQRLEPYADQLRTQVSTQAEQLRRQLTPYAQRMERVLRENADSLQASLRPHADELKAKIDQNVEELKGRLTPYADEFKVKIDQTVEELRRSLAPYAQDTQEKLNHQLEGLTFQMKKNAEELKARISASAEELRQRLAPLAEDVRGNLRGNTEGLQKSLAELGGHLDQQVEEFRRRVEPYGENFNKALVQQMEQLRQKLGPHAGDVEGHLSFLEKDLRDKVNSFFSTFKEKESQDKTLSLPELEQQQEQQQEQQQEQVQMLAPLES
# UniProt Q9Y6B7: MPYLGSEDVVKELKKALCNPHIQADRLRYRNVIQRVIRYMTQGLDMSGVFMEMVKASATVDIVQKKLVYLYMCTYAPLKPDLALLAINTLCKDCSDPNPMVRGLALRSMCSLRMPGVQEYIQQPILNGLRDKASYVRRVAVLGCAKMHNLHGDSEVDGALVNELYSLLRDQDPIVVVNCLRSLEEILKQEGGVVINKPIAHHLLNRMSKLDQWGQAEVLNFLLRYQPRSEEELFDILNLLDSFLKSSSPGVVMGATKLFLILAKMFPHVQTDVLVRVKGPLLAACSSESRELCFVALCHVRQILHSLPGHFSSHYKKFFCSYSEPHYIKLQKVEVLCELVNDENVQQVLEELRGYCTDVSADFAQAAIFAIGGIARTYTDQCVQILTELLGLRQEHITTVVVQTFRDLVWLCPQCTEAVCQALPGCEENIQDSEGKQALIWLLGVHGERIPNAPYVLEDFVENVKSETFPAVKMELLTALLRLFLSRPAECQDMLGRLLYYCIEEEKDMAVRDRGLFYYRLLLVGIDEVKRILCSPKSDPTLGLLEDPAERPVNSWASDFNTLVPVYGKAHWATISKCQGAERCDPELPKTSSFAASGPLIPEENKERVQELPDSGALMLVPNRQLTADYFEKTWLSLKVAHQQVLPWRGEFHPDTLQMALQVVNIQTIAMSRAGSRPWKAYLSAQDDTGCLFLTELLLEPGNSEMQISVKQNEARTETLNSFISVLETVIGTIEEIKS
# UniProt Q8N6S4: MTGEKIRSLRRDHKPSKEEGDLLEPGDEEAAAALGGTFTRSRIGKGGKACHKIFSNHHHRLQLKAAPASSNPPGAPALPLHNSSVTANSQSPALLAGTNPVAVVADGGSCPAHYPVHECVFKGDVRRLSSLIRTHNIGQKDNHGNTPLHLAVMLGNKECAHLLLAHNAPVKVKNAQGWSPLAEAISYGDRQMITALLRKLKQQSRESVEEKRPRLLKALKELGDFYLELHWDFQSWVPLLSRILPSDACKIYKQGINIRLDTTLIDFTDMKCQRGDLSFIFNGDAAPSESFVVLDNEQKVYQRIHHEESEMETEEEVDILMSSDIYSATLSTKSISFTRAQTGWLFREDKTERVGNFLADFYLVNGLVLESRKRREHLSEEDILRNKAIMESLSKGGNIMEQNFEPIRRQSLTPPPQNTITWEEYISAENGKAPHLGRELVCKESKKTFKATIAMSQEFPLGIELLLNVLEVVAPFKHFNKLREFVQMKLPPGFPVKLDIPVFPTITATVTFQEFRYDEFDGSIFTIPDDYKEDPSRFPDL
# UniProt Q10567: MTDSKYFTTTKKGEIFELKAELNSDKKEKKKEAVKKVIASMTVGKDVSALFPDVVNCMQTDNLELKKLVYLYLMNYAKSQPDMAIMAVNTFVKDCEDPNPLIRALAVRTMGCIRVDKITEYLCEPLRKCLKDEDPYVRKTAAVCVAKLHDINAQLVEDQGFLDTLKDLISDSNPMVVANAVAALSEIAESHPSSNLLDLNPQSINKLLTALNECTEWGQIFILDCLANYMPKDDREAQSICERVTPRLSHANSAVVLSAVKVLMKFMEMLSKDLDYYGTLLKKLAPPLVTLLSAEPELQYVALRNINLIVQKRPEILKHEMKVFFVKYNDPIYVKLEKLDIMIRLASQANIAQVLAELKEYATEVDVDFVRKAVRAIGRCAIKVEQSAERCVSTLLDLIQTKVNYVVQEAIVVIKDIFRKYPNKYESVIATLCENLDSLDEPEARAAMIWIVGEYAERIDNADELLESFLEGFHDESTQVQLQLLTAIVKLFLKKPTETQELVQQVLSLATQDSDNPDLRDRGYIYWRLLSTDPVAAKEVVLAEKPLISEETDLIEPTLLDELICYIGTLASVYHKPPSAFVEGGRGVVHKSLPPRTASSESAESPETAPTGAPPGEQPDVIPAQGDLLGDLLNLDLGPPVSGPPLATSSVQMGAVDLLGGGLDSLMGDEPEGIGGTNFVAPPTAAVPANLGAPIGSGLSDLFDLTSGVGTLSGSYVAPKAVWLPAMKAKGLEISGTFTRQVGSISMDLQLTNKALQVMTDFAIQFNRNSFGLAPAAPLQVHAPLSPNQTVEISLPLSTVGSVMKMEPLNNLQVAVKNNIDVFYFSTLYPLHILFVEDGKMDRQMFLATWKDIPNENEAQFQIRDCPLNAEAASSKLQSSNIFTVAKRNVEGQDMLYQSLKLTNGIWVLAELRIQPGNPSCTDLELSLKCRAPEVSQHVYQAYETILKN
# UniProt Q6P6B7: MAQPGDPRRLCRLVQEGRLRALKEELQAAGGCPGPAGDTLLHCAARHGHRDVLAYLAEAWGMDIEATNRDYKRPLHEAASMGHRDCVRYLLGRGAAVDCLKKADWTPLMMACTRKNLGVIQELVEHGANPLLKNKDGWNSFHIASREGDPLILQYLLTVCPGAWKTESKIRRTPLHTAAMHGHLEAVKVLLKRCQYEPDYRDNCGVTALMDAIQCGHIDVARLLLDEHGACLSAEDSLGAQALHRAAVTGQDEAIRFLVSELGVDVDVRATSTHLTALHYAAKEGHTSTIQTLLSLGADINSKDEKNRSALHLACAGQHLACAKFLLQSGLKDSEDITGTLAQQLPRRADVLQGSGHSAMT
# UniProt A6QL64: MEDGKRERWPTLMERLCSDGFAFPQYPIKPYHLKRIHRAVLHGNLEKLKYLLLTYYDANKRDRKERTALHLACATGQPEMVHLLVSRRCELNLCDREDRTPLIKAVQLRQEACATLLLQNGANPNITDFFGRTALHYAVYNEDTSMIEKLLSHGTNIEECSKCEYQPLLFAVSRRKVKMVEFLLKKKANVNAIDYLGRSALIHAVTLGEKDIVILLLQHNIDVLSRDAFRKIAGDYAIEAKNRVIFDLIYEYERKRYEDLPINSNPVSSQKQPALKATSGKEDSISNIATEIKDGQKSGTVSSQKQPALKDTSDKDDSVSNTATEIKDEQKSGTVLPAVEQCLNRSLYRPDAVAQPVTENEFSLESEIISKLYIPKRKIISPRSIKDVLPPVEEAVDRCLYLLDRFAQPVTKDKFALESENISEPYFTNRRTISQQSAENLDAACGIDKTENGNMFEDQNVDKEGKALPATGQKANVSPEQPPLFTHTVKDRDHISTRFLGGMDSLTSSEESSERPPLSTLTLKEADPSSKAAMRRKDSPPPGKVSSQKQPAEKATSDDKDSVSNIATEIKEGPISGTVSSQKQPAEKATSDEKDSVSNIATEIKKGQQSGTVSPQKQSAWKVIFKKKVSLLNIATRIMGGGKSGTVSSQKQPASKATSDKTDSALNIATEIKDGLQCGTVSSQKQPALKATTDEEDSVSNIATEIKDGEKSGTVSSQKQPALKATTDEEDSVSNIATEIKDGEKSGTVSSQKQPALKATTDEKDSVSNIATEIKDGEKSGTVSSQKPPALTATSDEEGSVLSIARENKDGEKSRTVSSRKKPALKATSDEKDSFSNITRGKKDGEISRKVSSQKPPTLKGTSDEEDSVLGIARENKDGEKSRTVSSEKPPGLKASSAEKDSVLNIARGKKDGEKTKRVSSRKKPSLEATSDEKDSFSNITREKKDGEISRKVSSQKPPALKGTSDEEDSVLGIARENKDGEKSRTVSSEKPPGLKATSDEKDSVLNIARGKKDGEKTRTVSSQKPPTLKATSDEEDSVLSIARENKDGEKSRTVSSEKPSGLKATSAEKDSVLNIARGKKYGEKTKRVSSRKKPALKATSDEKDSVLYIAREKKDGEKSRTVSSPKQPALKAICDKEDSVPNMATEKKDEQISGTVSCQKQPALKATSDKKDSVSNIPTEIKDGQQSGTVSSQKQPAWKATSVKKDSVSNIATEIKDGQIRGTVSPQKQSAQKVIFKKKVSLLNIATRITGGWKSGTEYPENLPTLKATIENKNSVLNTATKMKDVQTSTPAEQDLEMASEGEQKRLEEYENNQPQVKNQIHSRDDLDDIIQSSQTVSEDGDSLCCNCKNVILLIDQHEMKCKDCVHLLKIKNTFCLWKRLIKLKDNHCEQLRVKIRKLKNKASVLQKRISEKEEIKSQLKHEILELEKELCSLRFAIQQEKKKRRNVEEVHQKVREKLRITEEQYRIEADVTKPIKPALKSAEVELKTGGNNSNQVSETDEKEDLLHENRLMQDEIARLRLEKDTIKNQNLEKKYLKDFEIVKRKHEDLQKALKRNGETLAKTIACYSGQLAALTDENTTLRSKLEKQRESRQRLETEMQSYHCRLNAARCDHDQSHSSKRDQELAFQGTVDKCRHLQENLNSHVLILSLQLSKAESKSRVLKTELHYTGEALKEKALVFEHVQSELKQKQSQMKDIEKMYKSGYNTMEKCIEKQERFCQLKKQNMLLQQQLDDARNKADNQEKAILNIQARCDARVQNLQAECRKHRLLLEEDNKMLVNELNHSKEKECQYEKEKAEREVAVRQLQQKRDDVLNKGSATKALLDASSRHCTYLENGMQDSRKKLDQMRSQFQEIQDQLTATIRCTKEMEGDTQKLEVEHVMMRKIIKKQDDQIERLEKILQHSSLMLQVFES
# UniProt Q9NQW6: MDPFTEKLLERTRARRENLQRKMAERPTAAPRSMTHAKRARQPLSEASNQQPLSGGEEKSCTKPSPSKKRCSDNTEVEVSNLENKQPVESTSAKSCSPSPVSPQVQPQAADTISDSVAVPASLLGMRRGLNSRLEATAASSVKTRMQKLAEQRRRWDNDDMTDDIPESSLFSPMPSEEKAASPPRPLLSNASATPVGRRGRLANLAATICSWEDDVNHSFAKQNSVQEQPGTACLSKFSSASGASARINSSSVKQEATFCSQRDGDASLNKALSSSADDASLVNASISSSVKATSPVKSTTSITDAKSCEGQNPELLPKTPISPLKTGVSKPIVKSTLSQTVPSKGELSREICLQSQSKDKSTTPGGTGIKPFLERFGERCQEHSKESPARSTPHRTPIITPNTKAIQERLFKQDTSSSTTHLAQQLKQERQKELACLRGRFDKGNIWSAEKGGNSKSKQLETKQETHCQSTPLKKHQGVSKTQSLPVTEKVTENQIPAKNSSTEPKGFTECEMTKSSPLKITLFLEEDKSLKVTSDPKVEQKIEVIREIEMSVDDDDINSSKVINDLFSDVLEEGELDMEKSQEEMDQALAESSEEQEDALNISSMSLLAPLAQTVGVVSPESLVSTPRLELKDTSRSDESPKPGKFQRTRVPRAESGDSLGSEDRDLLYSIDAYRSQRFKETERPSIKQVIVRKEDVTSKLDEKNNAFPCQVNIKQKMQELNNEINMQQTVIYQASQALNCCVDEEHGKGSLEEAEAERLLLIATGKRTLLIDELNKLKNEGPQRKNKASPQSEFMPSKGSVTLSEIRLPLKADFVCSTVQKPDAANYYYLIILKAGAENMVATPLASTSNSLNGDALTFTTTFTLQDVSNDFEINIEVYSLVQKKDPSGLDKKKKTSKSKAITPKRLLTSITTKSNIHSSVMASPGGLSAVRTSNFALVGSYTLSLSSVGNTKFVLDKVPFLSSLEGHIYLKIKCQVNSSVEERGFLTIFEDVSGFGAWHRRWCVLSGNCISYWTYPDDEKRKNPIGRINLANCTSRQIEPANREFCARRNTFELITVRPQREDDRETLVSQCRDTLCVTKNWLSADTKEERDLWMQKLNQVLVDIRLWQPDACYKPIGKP
# UniProt Q9H0R1: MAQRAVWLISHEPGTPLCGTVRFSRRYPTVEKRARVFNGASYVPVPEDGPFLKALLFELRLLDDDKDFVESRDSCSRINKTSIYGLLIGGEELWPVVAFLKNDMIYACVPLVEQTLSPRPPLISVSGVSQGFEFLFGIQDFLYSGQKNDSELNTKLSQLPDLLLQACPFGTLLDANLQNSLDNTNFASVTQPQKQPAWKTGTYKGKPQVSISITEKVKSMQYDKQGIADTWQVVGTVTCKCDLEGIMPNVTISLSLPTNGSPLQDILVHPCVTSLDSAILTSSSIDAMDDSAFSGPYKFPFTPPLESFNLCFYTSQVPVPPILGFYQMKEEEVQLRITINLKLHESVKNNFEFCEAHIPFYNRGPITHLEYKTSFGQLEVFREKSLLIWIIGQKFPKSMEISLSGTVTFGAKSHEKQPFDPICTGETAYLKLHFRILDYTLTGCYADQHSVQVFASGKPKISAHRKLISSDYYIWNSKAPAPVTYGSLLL
# Some of the results follow.
# Compound: NC(=O)c1cnc(N[C@@H]2CCCC[C@@H]2N)nc1Nc1cccc(-n2nccn2)c1
# Experiment: log2 fold change, soluble protein after heating vs DMSO (PISA); higher = thermal stabilisation; K562 cells, 10 uM, 30 min; active = over 0.2 and 3.5 SD of the protein, either way, in both replicates (recomputed)
# Summary of the method: (§1)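 Soluble protein was quantified by TMTpro 16plex LC-MS/MS after channel sums were equalised. It was obtained as the supernatant after 21,000xg for 90 min from pooled aliquots of K562 cells (2×10^6 cells/mL, 10 μM compound, 30 min) heated for 3 min across 48°C-58°C and extracted in PBS with 0.5% NP-40 at 4°C. Thermal stability values are relative to control samples and come from duplicates. They are given as log2 fold changes.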
row,Target,log2 fold change
1,APC (UniProt P25054),inactive: 0.102
2,API5 isoform 1 (UniProt Q9BZZ5),inactive: -0.009
3,AREG (UniProt P15514),inactive: 0.12
4,APOA4 (UniProt P06727),inactive: -0.161
5,APOBEC3F (UniProt Q8IUX4),inactive: 0.152
6,AP4B1 (UniProt Q9Y6B7),inactive: 0.117
7,ANKS1A (UniProt Q92625),inactive: -0.074
8,ARHGAP35 (UniProt Q9NRY4),inactive: -0.131
9,AREL1 (UniProt O15033),inactive: -0.09
10,ANKH (UniProt Q9HCJ1),inactive: -0.227
11,APLF (UniProt Q8IW19),inactive: -0.489
12,APH1B (UniProt Q8WW43),inactive: -0.195
13,ANKRD13C (UniProt Q8N6S4),inactive: 0.075
14,ANKRD52 (UniProt Q8NB46),inactive: -0.025
15,APTX (UniProt Q7Z2E3),inactive: -0.023
16,AP1B1 isoform 3 (UniProt Q10567),inactive: -0.033
17,ARHGAP25 isoform 4 (UniProt P42331),inactive: 0.068

# Compound: NC1(c2ccc(-c3nc4ccn5c(=O)[nH]nc5c4cc3-c3ccccc3)cc2)CCC1
# Experiment: as above
# Summary of the method: as §1
row,Target,log2 fold change
1,ARHGAP21 (UniProt Q5T5U3),inactive: -0.025
2,APOA4 (UniProt P06727),inactive: 0.161
3,ANKRD16 (UniProt Q6P6B7),inactive: 0.228
4,ANKRD36 (UniProt A6QL64),inactive: 0.217
5,ARFIP1 isoform 2 (UniProt P53367),inactive: -0.147
6,ANKRD11 (UniProt Q6UB99),inactive: -0.149
7,ARHGAP35 (UniProt Q9NRY4),inactive: -0.039
8,APP (UniProt P05067),inactive: -0.022
9,AP3M2 (UniProt P53677),inactive: 0.056
10,ARAP1 (UniProt Q96P48),inactive: 0.153
11,ARID4B (UniProt Q4LE39),inactive: 0.253
12,ANKRD52 (UniProt Q8NB46),inactive: -0.111
13,ANLN (UniProt Q9NQW6),inactive: -0.097
14,AP5M1 (UniProt Q9H0R1),inactive: 0.306
15,APOC2 (UniProt P02655),inactive: 0.134
16,AP1B1 isoform 3 (UniProt Q10567),inactive: -0.064
17,ARHGAP25 isoform 4 (UniProt P42331),inactive: -0.181
18,AP5S1 (UniProt Q9NUS5),inactive: -0.209

# Compound: NCC(=O)Nc1ccc(-n2nc(C(F)(F)F)cc2-c2ccc3c(ccc4ccccc43)c2)cc1
# Experiment: as above
# Summary of the method: as §1
row,Target,log2 fold change
1,APC (UniProt P25054),inactive: -0.08
2,API5 isoform 1 (UniProt Q9BZZ5),inactive: -0.046
3,APOA4 (UniProt P06727),inactive: 0.065
4,ANKLE2 (UniProt Q86XL3),inactive: -0.083
5,ANGEL1 (UniProt Q9UNK9),inactive: -0.004
6,ARHGEF10 (UniProt O15013),inactive: -0.377
7,ANKRD16 (UniProt Q6P6B7),inactive: 0.007
8,ANKRD36 (UniProt A6QL64),inactive: -0.409
9,AP4B1 (UniProt Q9Y6B7),inactive: 0.021
10,ARHGAP22 isoform 2 (UniProt Q7Z5H3),inactive: 0.081
11,ANKRD11 (UniProt Q6UB99),inactive: -0.051
12,ARHGAP35 (UniProt Q9NRY4),inactive: -0.132
13,ANKRD13C (UniProt Q8N6S4),inactive: -0.085
14,ANKRD52 (UniProt Q8NB46),inactive: 0.148
15,ANLN (UniProt Q9NQW6),inactive: 0.126
16,AP5M1 (UniProt Q9H0R1),inactive: 0.036
17,APOC2 (UniProt P02655),inactive: -0.046
18,AP1B1 isoform 3 (UniProt Q10567),inactive: 0.027
19,ARHGAP25 isoform 4 (UniProt P42331),inactive: -0.127

# Compound: Nc1ccccc1NC(=O)c1ccc(CNC(=O)OCc2cccnc2)cc1 [entinostat]
# Experiment: as above
# Summary of the method: as §1
row,Target,log2 fold change
1,ARHGAP21 (UniProt Q5T5U3),inactive: -0.09
2,ANKRD16 (UniProt Q6P6B7),inactive: 0.105
3,ANKRD36 (UniProt A6QL64),inactive: -0.135
4,AP4B1 (UniProt Q9Y6B7),inactive: 0.081
5,ARFIP1 isoform 2 (UniProt P53367),inactive: 0.012
6,ARHGAP22 isoform 2 (UniProt Q7Z5H3),inactive: -0.045
7,ANKS1A (UniProt Q92625),inactive: -0.02
8,ANKRD11 (UniProt Q6UB99),inactive: -0.146
9,APP (UniProt P05067),inactive: 0.086
10,ARAP1 (UniProt Q96P48),inactive: 0.09
11,APH1B (UniProt Q8WW43),inactive: -0.059
12,ANLN (UniProt Q9NQW6),inactive: -0.101
13,AP5M1 (UniProt Q9H0R1),inactive: -0.085
14,APTX (UniProt Q7Z2E3),inactive: -0.089
